Measured values as given in PubChem BioAssay AID272 (DTP/NCI, 2004).
The list shows only some results of the screen, not a fair sample: it is rich in T/C values a quarter to a half above the control, in often repeated tests (any T/C) and in doses without a T/C. Other doses and runs of a compound stand elsewhere. T/C gives the treated animals as a percentage of the vehicle group. Some doses have a count of surviving animals in place of a T/C: the source holds a T/C of zero for them, seemingly a mark for toxic or unscored doses. Some survivor counts are full or nearly so, which does not show that the dose was tolerated: the source hardly ever lists a survival T/C far under the control, and the zero likely stands for such cases as well. Survivors were counted at the toxicity check, usually on the fifth day, unless a day is given; later deaths do not show. Schedule codes are those of the source, read here as Q, the interval in days (D) or hours (H), X, the number of doses. Marks such as (2×) stand for listed records that agree. Some entries hold several experiments; their values stand side by side, smallest first. For survival time, this PubChem deposit counts one and a half times the control or more as active, and values a quarter to a half above the control carry no call in these data; other NCI protocols may use other cut-offs. Some T/C values are followed by the survivors on the day toxicity was checked, most often the fifth; without a count, all were alive then.

Tested on: Lewis lung carcinoma i.m., BDF1 mice, T/C %
Assay: NCI In Vivo Anticancer Drug Screen. Data for tumor model Lewis Lung Carcinoma (intramuscular) in B6D2F1 (BDF1) mice
Outline: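 Compound given to mice with transplantable tumours; survival or tumour size compared against the vehicle control group, reported as T divided by C.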

[1] = T/C endpoint: median survival time, dose: 4.0 mg/kg/injection, schedule: Q01DX011 (ip), vehicle: saline, higher T/C = longer survival
[2] = T/C endpoint: median survival time, dose: 0.78 mg/kg/injection, schedule: Q01DX011 (ip), vehicle: Klucel (hydroxypropylcellulose) (HPC), higher T/C = longer survival

Compound: N=[N+]=CC(=O)OCC(N)C(=O)O (stereo not drawn)
- T/C [1]: 147 % of control
- survivor count [1]: 5 of 8
- survivor count (T/C endpoint: median survival time, dose: 8.0 mg/kg/injection, schedule: Q01DX011 (ip), vehicle: saline, higher T/C = longer survival): 6 of 8 (2×)
- survivor count (T/C endpoint: median survival time, dose: 16.0 mg/kg/injection, schedule: Q01DX011 (ip), vehicle: saline, higher T/C = longer survival): 2 of 8 and 3 of 8
- survivor count (T/C endpoint: median survival time, dose: 32.0 mg/kg/injection, schedule: Q01DX011 (ip), vehicle: saline, higher T/C = longer survival): 0 of 8 (2×)
- survivor count (T/C endpoint: median tumor weight (est.), dose: 4.0 mg/kg/injection, schedule: Q01DX011 (ip), vehicle: saline, higher T/C = larger tumour): 5 of 8
- survivor count (T/C endpoint: median tumor weight (est.), dose: 16.0 mg/kg/injection, schedule: Q01DX011 (ip), vehicle: saline, higher T/C = larger tumour): 3 of 8

Compound: Nc1cc(I)c2cccnc2c1O
- survivor count (T/C endpoint: mean tumor weight (est.), dose: 50.0 mg/kg/injection, schedule: Q01DX011 (ip), vehicle: saline with Tween-80, higher T/C = larger tumour): 1 of 8
- survivor count (T/C endpoint: median survival time, dose: 50.0 mg/kg/injection, schedule: Q01DX011 (ip), vehicle: saline with Tween-80, higher T/C = longer survival): 1 of 8

Compound: Cc1ccc(NC(=O)N(CCCl)N=O)cc1C
- survivor count (T/C endpoint: median survival time, dose: 39.0 mg/kg/injection, schedule: Q07DX003 (ip), vehicle: Klucel (hydroxypropylcellulose) (HPC), higher T/C = longer survival): 8 of 8
- survivor count (T/C endpoint: median survival time, dose: 65.0 mg/kg/injection, schedule: Q07DX003 (ip), vehicle: Klucel (hydroxypropylcellulose) (HPC), higher T/C = longer survival): 6 of 8

Compound: Cc1cc[n+](CCc2ccccc2)cc1
- survivor count (T/C endpoint: median survival time, dose: 100.0 mg/kg/injection, schedule: Q01DX011 (ip), vehicle: saline, higher T/C = longer survival): 0 of 8
- survivor count (T/C endpoint: median survival time, dose: 200.0 mg/kg/injection, schedule: Q01DX011 (ip), vehicle: saline, higher T/C = longer survival): 0 of 8

Compound: COc1c(C)c2c(c(O)c1C/C=C(\C)CCC(=O)O)C(=O)OC2
- T/C (T/C endpoint: median survival time, dose: 200.0 mg/kg/injection, schedule: Q01DX011 (ip), vehicle: saline with Tween-80, higher T/C = longer survival): 130 % of control [6 of 8 alive]
- survivor count (T/C endpoint: median survival time, dose: 400.0 mg/kg/injection, schedule: Q01DX011 (ip), vehicle: saline with Tween-80, higher T/C = longer survival): 0 of 8

Compound: O=C1CN=C(c2ccc[nH]2)c2cc(Cl)ccc2N1
- survivor count (T/C endpoint: median survival time, dose: 50.0 mg/kg/injection, schedule: Q01DX011 (ip), vehicle: Klucel (hydroxypropylcellulose) (HPC), higher T/C = longer survival): 8 of 8
- survivor count (T/C endpoint: median survival time, dose: 100.0 mg/kg/injection, schedule: Q01DX011 (ip), vehicle: Klucel (hydroxypropylcellulose) (HPC), higher T/C = longer survival): 5 of 8
- survivor count (T/C endpoint: median survival time, dose: 200.0 mg/kg/injection, schedule: Q01DX011 (ip), vehicle: Klucel (hydroxypropylcellulose) (HPC), higher T/C = longer survival): 6 of 8
- survivor count (T/C endpoint: median survival time, dose: 400.0 mg/kg/injection, schedule: Q01DX011 (ip), vehicle: Klucel (hydroxypropylcellulose) (HPC), higher T/C = longer survival): 3 of 8
- survivor count (T/C endpoint: median survival time, dose: 800.0 mg/kg/injection, schedule: Q01DX011 (ip), vehicle: Klucel (hydroxypropylcellulose) (HPC), higher T/C = longer survival): 0 of 6

Compound: Nc1nc(SCc2ccccc2)c2[nH]cnc2n1
- survivor count (T/C endpoint: mean tumor weight (est.), dose: 0.78 mg/kg/injection, schedule: Q01DX011 (ip), vehicle: Klucel (hydroxypropylcellulose) (HPC), higher T/C = larger tumour): 5 of 8
- survivor count (T/C endpoint: mean tumor weight (est.), dose: 3.12 mg/kg/injection, schedule: Q01DX011 (ip), vehicle: saline, higher T/C = larger tumour): 5 of 8
- survivor count (T/C endpoint: mean tumor weight (est.), dose: 6.25 mg/kg/injection, schedule: Q01DX011 (ip), vehicle: Klucel (hydroxypropylcellulose) (HPC), higher T/C = larger tumour): 5 of 8
- survivor count (T/C endpoint: mean tumor weight (est.), dose: 12.5 mg/kg/injection, schedule: Q01DX011 (ip), vehicle: Klucel (hydroxypropylcellulose) (HPC), higher T/C = larger tumour): 0 of 8
- survivor count (T/C endpoint: mean tumor weight (est.), dose: 12.5 mg/kg/injection, schedule: Q01DX011 (ip), vehicle: saline, higher T/C = larger tumour): 5 of 8
- survivor count (T/C endpoint: mean tumor weight, dose: 6.25 mg/kg/injection, schedule: Q01DX011 (ip), vehicle: Klucel (hydroxypropylcellulose) (HPC), higher T/C = larger tumour): 3 of 8
- survivor count (T/C endpoint: mean tumor weight, dose: 12.5 mg/kg/injection, schedule: Q01DX011 (ip), vehicle: Klucel (hydroxypropylcellulose) (HPC), higher T/C = larger tumour): 1 of 8
- T/C (T/C endpoint: median survival time, dose: 0.39 mg/kg/injection, schedule: Q01DX011 (ip), vehicle: Klucel (hydroxypropylcellulose) (HPC), higher T/C = longer survival): 127 % of control [7 of 8 alive]
- T/C [2]: 129 % of control [7 of 8 alive]
- survivor count [2]: 5 of 8
- survivor count (T/C endpoint: median survival time, dose: 0.78 mg/kg/injection, schedule: Q01DX011 (ip), vehicle: saline, higher T/C = longer survival): 7 of 8
- survivor count (T/C endpoint: median survival time, dose: 1.56 mg/kg/injection, schedule: Q01DX011 (ip), vehicle: Klucel (hydroxypropylcellulose) (HPC), higher T/C = longer survival): 7 of 8
- T/C (T/C endpoint: median survival time, dose: 3.12 mg/kg/injection, schedule: Q01DX011 (ip), vehicle: Klucel (hydroxypropylcellulose) (HPC), evaluated on day 12, higher T/C = longer survival): 125 % of control [7 of 8 alive]
- T/C (T/C endpoint: median survival time, dose: 3.12 mg/kg/injection, schedule: Q01DX011 (ip), vehicle: Klucel (hydroxypropylcellulose) (HPC), evaluated on day 50, higher T/C = longer survival): 146 % of control
- survivor count (T/C endpoint: median survival time, dose: 3.12 mg/kg/injection, schedule: Q01DX011 (ip), vehicle: saline, higher T/C = longer survival): 5 of 8
- survivor count (T/C endpoint: median survival time, dose: 6.25 mg/kg/injection, schedule: Q01DX011 (ip), vehicle: Klucel (hydroxypropylcellulose) (HPC), higher T/C = longer survival): 3 of 8 and 5 of 8
- survivor count (T/C endpoint: median survival time, dose: 12.5 mg/kg/injection, schedule: Q01DX011 (ip), vehicle: Klucel (hydroxypropylcellulose) (HPC), higher T/C = longer survival): 0 of 8 and 1 of 8
- survivor count (T/C endpoint: median survival time, dose: 12.5 mg/kg/injection, schedule: Q01DX011 (ip), vehicle: saline, higher T/C = longer survival): 5 of 8
